Percent effect of library compounds

Values are the deposited “Percent Effect”, in %.
The record does not define 0% and 100%; most values in the screen are far below 50% and negative numbers occur (in some assays of this library far below -100).
Compounds were drawn at random from those tested, without regard to their results.

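Whole-parasite assay of Trypanosoma brucei over 72 hours; the read-out is not stated. Tested at 30 µM. Direction is inferred from retests: higher values go with stronger inhibition. Values scatter widely below zero; nearly all retest evidence comes from the higher of the two concentrations used. Of about 64,000 compounds tested this way, about 940 (1.5%) reached 50% or more in at least one test.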

{"smiles": "COCc1nnc(-c2cccc(C(=O)N(C)CC(C)(C)C)c2)o1", "effect": -45.24}
{"smiles": "N#Cc1ccc(C(=O)N2CCOC[C@H](Oc3cnccn3)C2)cc1", "effect": 17.46}
{"smiles": "CCOCCOc1ccc(S(=O)(=O)N2CCc3c(nc[nH]c3=O)C2)cc1", "effect": -8.269}
{"smiles": "Cc1ccc2cccc(C(=O)N3CCN(c4cccnn4)CC3)c2n1", "effect": 3.153}
{"smiles": "[H][C@@]12CS(=O)(=O)C[C@]1([H])N(Cc1ccc(F)c(C)c1)CCN2CC1CC1", "effect": -35.72}
{"smiles": "CC(C)c1nnc(NC(=O)CCC(=O)NCC2CCCO2)s1", "stereo": "stereo not drawn", "effect": -45.2}
{"smiles": "COC(=O)c1oc(CNC(C)(C)c2ccc3c(c2)OCO3)cc1C", "effect": -28.11}
{"smiles": "Cn1cnc(S(=O)(=O)NCCCN2CCOCC2)c1Cl", "effect": -41.44}
{"smiles": "CSCC[C@H](NC(=O)CCn1cc(C(C)=O)c2ccccc21)C(=O)O", "effect": 7.331}
{"smiles": "CSCCCN1C[C@H](NC(=O)c2cc(C3CC3)on2)[C@@H](C2CC2)C1", "effect": -44.48}
{"smiles": "CNC(=O)c1cccc(CN2CCC(N(C)Cc3noc(C)n3)C2)c1", "stereo": "stereo not drawn", "effect": -61.15}
{"smiles": "O=C(c1cc(F)ccc1F)C1CCN(C(=O)c2cccnc2O)CC1", "effect": -13.77}
{"smiles": "Cl.N#Cc1cccnc1OC1CCNCC1", "effect": -28.95}
{"smiles": "COc1ccc(Cl)cc1C(=O)NCc1cnn(C)c1C", "effect": -89.82}
{"smiles": "COc1ccc(CC2(C(=O)O)CCN(c3nc(C)ncc3C)CC2)cc1", "effect": -25.99}
{"smiles": "CC(=O)Nc1nc(C(=O)NCc2ccc(N3CCOC(C)C3)nc2)cs1", "stereo": "stereo not drawn", "effect": -13.26}
{"smiles": "O=C(Nc1cccc(F)c1)N1CCC(CO)(Nc2ccccc2)CC1", "effect": -27.67}
{"smiles": "COCCCNC(=O)C(C)(C)N(C)C1CCCC1", "effect": 9.12}
{"smiles": "O=C1CC(c2cccnc2)c2c(c(C(=O)O)cn2-c2ccccc2F)N1", "stereo": "stereo not drawn", "effect": 0.5996}
{"smiles": "Cl.O=C1NC2(CCNCC2)CC1c1ccccc1", "stereo": "stereo not drawn", "effect": -23.39}
{"smiles": "COc1c(CNC(c2ccc(F)cc2)C(C)(C)C)c(C)nn1C", "stereo": "stereo not drawn", "effect": -95.14}
{"smiles": "CCCNC(=O)C(C)NC(=O)CCc1ccccc1Br", "stereo": "stereo not drawn", "effect": -18.32}
{"smiles": "[H][C@@]12CN(C(=O)N(C)C)C[C@]1([H])C(=O)N(C)C21CCN(C(=O)NC(C)C)CC1", "effect": -26.74}
{"smiles": "CCn1nc(C)c(CCNC(=O)C2CCCN(C(N)=O)C2)c1C", "stereo": "stereo not drawn", "effect": -60.57}
{"smiles": "CC(Nc1ncnc2c1CCNCC2)c1nc2c(s1)CCCC2", "stereo": "stereo not drawn", "effect": 6.589}
{"smiles": "O=C(NCCc1nccs1)N1CCC(n2cccc2)CC1", "effect": 0.908}
{"smiles": "CCOC(=O)CCC(=O)N1CC(c2nc(Cc3ccccc3)no2)C1", "effect": -10.59}
{"smiles": "CN(C)c1ncnc2c1CCN(C(=O)c1sccc1S(N)(=O)=O)C2", "effect": -10.11}
{"smiles": "CC(C)N1CC2(CCCN(c3ccccn3)C2)CCC1=O", "stereo": "stereo not drawn", "effect": -55.93}
{"smiles": "CN1CCN(Cc2ccccc2CNC(=O)c2cc(Cl)ccc2F)CC1", "effect": -25.52}
{"smiles": "O=C(c1cnccn1)N1CCCC(Cn2cc(C3CC3)nn2)C1", "stereo": "stereo not drawn", "effect": -88.39}
{"smiles": "CC(C)N(Cc1nc(-c2cccs2)no1)CC1CCC(=O)N1", "stereo": "stereo not drawn", "effect": 1.612}
{"smiles": "Cc1ccc(N2CC3(CCN(c4nccs4)C3)C2)nn1", "effect": -35.48}
{"smiles": "CC(C)C1CN(C(=O)c2csc(CN(C)C)n2)CCC(=O)N1CC1CC1", "stereo": "stereo not drawn", "effect": -13.62}
{"smiles": "O=C(O)C(F)(F)F.[H][C@@]12CN(Cc3nccs3)C[C@]1([H])CN(C(=O)N1CCOCC1)C2", "effect": 36.85}
{"smiles": "CN(C)Cc1nnc(C2CCN(c3ncccc3Cl)CC2)n1C1CC1", "effect": -19.58}
{"smiles": "CC(C)c1ccc(OCCC(=O)N2CCC(CC(N)=O)CC2)cc1", "effect": 22.71}
{"smiles": "Cn1ccc(C(=O)N2CCCCC2c2cc(CCO)[nH]n2)n1", "stereo": "stereo not drawn", "effect": -16.55}
{"smiles": "Cc1ccsc1C(=O)N1CCCc2c(c(=O)n(C)n2C)C1", "effect": -48.59}
{"smiles": "CNc1nc(N2C[C@H](NC(=O)CCOC)[C@@H](C3CC3)C2)nc2c1CCC2", "effect": -68.05}
{"smiles": "COc1ccc2[nH]c(C[C@@H]3C[C@@H](C(C)C)[C@H](CN(C)C)C=C3C)nc2c1", "effect": 22.6}
{"smiles": "Cc1cc(C)c2nc(CN3CCC(C#N)CC3)cc(O)c2c1", "effect": -24.28}
{"smiles": "CC(C)c1nnsc1CNC(=O)C1CCN(C(=O)C2CCC2)CC1", "effect": -8.46}
{"smiles": "Cc1cc(C)nc(Nc2cccc(C3CCCN(S(C)(=O)=O)C3)n2)n1", "stereo": "stereo not drawn", "effect": -23.75}
{"smiles": "OC1CCN(c2ccnc(NCCc3ccccc3Cl)n2)CC1", "effect": -8.876}
{"smiles": "Cc1cc(CNC(=O)NCC(O)c2cccc(F)c2)no1", "stereo": "stereo not drawn", "effect": -13.08}
{"smiles": "CCc1nc(C2CCCN(C(=O)c3cc(C(C)C)[nH]n3)C2)no1", "stereo": "stereo not drawn", "effect": -15.97}
{"smiles": "Cc1ncsc1C(=O)NCCn1nc2ccccn2c1=O", "effect": 3.974}
{"smiles": "COCCOc1cc(C(=O)N2CC(C)c3ccccc32)ccn1", "stereo": "stereo not drawn", "effect": -7.782}
{"smiles": "COCC1CCCCN1C(=O)c1cc(-c2cccc(OC)c2)n[nH]1", "stereo": "stereo not drawn", "effect": -7.794}
{"smiles": "[H][C@]12CC[C@]([H])(CN(C(=O)N(C)C)C1)N(C(=O)c1cccnc1SC)C2", "effect": -0.1788}
{"smiles": "COc1ccc(-c2noc(-c3ccc(N4CCC[C@H]4CO)nc3)n2)cc1", "effect": 1.5}
{"smiles": "CCc1c(C(=O)NC2CCS(=O)(=O)C2)cnn1-c1ccc(F)cc1", "stereo": "stereo not drawn", "effect": 15.23}

Some entries from above, unchanged:

- Cc1cc(C)nc(Nc2cccc(C3CCCN(S(C)(=O)=O)C3)n2)n1 (stereo not drawn) | -23.75%
- Cl.O=C1NC2(CCNCC2)CC1c1ccccc1 (stereo not drawn) | -23.39%
- COCC1CCCCN1C(=O)c1cc(-c2cccc(OC)c2)n[nH]1 (stereo not drawn) | -7.794%
- CSCC[C@H](NC(=O)CCn1cc(C(C)=O)c2ccccc21)C(=O)O | 7.331%

Measurements from “University of Dundee, Small-Polar-MMV Screening Library” (2021), ChEMBL document CHEMBL3988442.